Assay results taken from PMC5526866.

Molecular target: T1, FLAG-tagged IRS2-WT (mouse) (UniProt P81122)
T1 sequence: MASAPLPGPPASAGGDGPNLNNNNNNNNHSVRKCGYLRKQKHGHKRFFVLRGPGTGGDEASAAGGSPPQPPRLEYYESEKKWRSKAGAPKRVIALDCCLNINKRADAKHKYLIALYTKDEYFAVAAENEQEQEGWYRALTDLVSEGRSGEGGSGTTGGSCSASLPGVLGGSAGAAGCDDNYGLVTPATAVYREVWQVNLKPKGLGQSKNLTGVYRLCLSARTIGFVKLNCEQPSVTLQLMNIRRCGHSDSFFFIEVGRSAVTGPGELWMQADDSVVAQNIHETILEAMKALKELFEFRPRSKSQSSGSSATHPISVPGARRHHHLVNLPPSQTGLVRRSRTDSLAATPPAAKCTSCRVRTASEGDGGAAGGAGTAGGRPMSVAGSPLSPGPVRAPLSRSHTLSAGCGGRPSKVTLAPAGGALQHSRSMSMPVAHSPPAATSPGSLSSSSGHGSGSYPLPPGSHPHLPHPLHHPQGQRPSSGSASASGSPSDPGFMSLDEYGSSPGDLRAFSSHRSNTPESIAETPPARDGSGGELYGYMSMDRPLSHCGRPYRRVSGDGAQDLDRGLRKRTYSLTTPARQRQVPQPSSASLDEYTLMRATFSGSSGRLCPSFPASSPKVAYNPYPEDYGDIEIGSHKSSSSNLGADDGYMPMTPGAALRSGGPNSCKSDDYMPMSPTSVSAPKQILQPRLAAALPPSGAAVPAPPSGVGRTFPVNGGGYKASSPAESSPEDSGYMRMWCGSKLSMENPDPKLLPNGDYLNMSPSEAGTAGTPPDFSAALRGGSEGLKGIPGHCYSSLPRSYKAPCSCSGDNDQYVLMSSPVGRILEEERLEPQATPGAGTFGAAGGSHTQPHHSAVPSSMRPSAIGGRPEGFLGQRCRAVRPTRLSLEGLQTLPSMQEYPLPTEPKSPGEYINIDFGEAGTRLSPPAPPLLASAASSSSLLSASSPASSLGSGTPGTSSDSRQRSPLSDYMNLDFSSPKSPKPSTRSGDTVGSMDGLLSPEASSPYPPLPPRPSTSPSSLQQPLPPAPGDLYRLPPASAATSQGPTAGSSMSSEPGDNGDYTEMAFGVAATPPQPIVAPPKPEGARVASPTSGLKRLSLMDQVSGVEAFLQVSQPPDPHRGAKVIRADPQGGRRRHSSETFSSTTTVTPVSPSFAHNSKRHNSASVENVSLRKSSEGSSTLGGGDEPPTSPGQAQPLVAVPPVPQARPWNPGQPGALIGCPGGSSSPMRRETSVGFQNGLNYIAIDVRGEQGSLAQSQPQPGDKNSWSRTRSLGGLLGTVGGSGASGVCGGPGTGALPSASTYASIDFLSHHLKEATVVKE
Test: far-Western, overlay or dot blot; purified IRS1/2-WT or mutants run on a Tris-acetate gel and transferred to a PVDF membrane, treated with 6 M guanidine-HCl and renatured; incubated with 5 µg IRβ in protein-binding buffer (100 mM NaCl, 20 mM Tris pH 7.6, 0.5 mM EDTA, 10% glycerol, 0.1% Tween-20, 2% skim milk, 1 mM DTT) for 16 h at 4 °C; detected with anti-IRβ; both purified

For “IRβ protein (used in solution in the far-Western blot) (receptor)”, which binding is on record?
The binding was “binds”.

Results are given in words; binding and its absence hold for the method and conditions named. Binding can be weak; no strength is given. Where a sequence is shown, tags or fusion partners need not be part of it.
